# Experimental data reported in the supplement of paper PMC12819154, “High-throughput peptide-centric local stability assay extends protein–ligand identification to membrane proteins, tissues and bacteria” (Nature Structural & Molecular Biology, 2025).
# Sequences of proteins named here, by UniProt entry; tags and fusion partners are left off. A change or cut given only in a name is not applied to a line headed by its entry.
# UniProt Q9D3B1: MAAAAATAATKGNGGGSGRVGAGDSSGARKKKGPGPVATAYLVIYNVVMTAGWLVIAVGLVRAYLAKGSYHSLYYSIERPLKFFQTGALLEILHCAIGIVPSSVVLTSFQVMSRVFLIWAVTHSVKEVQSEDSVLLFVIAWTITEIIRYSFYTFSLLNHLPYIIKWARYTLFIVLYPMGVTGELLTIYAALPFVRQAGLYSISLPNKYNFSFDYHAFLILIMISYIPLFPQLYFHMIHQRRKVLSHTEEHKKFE
# UniProt Q9D8N0, whole entry: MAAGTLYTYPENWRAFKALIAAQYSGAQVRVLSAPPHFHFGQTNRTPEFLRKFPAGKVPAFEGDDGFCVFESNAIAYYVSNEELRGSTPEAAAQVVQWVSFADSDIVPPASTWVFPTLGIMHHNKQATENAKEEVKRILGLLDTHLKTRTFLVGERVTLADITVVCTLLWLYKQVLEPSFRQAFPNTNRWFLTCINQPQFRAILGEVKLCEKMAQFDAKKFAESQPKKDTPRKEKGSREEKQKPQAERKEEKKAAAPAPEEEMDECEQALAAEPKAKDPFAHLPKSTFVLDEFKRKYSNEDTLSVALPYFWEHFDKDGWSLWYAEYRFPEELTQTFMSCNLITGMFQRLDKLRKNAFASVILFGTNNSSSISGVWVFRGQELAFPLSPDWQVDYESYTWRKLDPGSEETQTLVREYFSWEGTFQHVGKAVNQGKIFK
# UniProt Q9D7N9: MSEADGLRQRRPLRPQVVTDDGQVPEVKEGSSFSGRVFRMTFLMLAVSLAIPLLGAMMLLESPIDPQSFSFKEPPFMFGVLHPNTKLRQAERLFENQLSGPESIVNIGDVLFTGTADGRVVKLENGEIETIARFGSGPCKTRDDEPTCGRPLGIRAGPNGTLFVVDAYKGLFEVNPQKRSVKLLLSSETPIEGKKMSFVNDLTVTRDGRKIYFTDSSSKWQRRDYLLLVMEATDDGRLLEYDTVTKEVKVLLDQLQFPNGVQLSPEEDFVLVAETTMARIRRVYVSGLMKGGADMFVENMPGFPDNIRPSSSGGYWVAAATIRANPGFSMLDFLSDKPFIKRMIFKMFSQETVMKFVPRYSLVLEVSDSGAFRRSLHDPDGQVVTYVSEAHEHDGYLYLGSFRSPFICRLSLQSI
# UniProt Q9D009: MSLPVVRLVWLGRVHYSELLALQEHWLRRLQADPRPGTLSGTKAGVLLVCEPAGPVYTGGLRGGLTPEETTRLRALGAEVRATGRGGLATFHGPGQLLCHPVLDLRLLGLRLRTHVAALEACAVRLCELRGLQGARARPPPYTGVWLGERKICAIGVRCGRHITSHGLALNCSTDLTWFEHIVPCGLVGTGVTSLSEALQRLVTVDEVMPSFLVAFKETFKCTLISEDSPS
# UniProt Q9CZH3: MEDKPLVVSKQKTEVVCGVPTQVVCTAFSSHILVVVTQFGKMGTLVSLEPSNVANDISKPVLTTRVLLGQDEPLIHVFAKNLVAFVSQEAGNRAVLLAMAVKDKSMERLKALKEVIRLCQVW
# UniProt Q9D7I5: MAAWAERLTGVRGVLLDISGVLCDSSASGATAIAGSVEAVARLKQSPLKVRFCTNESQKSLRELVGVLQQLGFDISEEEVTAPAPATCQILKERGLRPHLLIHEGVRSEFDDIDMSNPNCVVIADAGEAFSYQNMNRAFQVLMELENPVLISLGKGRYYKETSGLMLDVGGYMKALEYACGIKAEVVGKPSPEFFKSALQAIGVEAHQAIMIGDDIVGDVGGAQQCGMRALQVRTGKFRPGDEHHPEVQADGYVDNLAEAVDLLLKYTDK
# UniProt Q9D1R1: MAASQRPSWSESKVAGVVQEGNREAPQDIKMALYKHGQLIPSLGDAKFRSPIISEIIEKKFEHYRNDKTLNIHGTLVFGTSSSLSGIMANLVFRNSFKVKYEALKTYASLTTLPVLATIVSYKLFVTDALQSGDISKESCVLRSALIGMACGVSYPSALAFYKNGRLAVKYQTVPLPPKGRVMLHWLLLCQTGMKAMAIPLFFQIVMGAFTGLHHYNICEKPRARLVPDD
# UniProt Q9CY24: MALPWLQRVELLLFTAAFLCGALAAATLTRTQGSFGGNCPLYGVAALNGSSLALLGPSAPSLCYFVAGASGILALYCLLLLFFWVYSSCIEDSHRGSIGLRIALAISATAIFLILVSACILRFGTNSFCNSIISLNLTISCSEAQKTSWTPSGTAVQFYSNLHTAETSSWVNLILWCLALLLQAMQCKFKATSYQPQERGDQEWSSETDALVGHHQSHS
# UniProt Q9D898, whole entry: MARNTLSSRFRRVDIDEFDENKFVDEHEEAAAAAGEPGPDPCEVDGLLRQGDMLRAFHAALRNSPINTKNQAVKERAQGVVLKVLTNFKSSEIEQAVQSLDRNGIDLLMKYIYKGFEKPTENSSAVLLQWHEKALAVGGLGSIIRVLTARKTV
# UniProt Q9DB05: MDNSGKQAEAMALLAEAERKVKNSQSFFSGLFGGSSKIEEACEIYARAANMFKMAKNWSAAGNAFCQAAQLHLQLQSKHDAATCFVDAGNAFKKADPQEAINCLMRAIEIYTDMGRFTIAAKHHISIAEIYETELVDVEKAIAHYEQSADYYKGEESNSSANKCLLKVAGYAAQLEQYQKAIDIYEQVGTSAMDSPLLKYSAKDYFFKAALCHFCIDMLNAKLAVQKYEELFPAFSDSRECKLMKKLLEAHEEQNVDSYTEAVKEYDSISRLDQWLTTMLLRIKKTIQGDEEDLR
# UniProt Q9D1A2: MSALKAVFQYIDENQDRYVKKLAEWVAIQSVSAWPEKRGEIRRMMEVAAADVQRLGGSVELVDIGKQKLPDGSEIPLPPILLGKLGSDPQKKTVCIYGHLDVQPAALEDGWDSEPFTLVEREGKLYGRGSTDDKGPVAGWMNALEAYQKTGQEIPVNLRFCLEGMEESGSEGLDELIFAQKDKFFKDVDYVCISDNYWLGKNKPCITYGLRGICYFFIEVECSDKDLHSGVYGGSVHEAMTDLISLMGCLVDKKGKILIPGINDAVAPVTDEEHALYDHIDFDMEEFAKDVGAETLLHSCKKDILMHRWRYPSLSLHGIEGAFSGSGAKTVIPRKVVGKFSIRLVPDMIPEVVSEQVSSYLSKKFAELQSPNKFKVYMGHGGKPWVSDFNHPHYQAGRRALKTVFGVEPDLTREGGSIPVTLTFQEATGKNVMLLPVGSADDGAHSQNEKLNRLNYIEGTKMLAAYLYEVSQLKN
# UniProt Q9DBM2: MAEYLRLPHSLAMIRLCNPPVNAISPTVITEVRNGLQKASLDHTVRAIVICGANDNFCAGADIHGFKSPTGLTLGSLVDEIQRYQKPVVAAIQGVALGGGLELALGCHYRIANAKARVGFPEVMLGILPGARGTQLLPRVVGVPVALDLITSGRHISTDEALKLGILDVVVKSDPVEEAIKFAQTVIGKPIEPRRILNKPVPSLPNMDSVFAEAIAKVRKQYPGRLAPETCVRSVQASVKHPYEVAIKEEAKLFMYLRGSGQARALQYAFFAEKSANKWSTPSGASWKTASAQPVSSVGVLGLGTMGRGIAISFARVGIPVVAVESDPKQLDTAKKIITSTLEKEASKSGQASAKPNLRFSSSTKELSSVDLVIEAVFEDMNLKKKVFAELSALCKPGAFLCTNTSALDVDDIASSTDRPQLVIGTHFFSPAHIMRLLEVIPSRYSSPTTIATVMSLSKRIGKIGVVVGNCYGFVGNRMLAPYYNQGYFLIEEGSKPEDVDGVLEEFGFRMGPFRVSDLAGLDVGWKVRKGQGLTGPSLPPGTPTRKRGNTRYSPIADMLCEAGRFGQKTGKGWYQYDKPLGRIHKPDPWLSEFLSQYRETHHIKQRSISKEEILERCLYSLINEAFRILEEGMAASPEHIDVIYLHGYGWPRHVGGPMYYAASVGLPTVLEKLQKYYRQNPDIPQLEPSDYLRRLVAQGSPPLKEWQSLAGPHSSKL
# UniProt Q9DBH0: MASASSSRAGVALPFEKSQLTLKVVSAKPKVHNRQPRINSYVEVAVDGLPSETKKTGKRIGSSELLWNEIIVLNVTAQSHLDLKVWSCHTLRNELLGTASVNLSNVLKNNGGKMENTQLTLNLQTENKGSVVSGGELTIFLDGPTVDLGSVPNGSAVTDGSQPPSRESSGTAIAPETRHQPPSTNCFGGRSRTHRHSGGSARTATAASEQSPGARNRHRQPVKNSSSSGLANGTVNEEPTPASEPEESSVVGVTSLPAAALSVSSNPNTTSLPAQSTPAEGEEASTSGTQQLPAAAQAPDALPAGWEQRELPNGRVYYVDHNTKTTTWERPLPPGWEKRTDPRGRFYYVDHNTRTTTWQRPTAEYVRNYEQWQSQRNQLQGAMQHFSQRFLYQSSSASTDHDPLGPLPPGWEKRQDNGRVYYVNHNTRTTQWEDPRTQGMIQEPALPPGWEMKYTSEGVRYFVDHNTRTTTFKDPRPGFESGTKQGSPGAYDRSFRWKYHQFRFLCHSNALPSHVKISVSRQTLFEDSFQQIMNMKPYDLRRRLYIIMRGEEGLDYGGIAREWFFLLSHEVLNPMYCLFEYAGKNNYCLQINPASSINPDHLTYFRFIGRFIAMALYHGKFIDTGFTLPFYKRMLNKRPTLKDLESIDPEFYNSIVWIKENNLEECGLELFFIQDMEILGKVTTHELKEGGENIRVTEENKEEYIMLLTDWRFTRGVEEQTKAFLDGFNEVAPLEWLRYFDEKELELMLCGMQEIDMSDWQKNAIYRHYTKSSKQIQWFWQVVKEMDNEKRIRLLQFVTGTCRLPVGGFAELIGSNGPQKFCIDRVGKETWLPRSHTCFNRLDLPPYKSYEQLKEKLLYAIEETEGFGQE
# UniProt Q9DBG3: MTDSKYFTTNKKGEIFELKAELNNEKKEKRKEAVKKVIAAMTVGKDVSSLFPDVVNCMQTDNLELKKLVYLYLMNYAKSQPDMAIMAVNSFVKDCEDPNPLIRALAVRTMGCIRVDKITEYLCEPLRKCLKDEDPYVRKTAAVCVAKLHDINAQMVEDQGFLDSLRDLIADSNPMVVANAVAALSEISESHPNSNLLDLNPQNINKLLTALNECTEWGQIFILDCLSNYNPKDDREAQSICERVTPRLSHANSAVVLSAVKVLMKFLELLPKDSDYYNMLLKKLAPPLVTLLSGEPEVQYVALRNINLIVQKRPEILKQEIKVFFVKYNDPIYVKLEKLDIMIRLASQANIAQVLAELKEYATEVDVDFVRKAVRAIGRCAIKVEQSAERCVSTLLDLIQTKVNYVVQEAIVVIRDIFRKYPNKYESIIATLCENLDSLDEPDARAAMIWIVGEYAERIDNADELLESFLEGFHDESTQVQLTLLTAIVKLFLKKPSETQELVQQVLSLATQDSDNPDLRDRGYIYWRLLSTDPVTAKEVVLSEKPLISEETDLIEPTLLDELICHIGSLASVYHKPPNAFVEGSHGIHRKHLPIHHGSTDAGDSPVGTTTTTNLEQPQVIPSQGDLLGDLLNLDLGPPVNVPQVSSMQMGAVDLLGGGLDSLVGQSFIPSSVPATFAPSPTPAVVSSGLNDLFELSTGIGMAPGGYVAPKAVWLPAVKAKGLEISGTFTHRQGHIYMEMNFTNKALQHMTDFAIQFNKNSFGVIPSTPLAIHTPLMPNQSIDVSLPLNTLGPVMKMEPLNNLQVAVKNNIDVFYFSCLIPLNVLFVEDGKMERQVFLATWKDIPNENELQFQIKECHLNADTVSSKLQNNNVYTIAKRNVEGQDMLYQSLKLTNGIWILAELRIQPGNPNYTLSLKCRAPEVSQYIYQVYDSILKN
# UniProt Q9D855: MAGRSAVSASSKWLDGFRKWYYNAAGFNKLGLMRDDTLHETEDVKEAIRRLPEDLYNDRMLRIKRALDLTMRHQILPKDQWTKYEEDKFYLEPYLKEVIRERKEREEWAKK
# UniProt Q9CYZ2: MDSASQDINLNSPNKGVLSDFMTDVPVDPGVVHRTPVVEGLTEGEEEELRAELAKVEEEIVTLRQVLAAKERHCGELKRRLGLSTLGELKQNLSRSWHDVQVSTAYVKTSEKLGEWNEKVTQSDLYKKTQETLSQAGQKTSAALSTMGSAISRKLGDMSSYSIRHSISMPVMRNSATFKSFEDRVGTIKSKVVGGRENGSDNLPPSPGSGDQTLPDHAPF
# UniProt Q9D0L8, whole entry: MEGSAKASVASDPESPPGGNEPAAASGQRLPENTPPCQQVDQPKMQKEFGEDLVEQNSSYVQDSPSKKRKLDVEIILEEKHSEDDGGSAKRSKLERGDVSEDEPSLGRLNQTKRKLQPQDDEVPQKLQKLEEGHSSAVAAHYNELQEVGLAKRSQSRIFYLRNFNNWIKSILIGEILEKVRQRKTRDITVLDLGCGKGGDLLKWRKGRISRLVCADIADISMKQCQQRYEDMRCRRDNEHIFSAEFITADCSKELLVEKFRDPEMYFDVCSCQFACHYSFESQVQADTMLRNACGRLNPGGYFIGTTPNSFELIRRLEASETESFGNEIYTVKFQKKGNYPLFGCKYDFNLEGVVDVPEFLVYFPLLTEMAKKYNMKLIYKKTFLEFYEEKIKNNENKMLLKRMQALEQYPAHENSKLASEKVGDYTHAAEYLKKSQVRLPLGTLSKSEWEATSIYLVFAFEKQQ
# UniProt Q9D772: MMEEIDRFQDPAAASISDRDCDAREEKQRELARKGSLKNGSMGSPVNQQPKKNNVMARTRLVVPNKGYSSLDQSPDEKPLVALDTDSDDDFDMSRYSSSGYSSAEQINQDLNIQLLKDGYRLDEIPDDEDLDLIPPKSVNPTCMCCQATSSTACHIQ
# This is one part of the list. Small differences around the control level are noise.
# Compound: CN[C@@H]1C[C@H]2O[C@@](C)([C@@H]1OC)n1c3ccccc3c3c4c(c5c6ccccc6n2c5c31)C(=O)NC4 [staurosporine]
# Experiment: log2 fold change of pooled soluble protein (PISA), ligand vs vehicle (log2 ratio); higher = more thermally stabilized
# Conditions: ligand concentration: 20 uM; assay format: PISA pool 52.9/55.5/58.6 C
row,Target,log2 fold change of pooled soluble protein
1,UniProt Q9DBG6,-0.0863
2,UniProt Q9D3B1,-0.0146
3,UniProt Q9D8N0,-0.0927
4,UniProt Q9D7N9,-0.0455
5,UniProt Q9D009,-0.266
6,UniProt Q9CZH3,-0.125
7,UniProt Q9CZ04,-0.0713
8,UniProt Q9D7I5,-0.0377
9,UniProt Q9D1R1,-0.105
10,UniProt Q9D1R9,-0.11
11,UniProt Q9CZR3,0.0161
12,UniProt Q9CY24,0.0332
13,UniProt Q9DAV9,0.148
14,UniProt Q9D898,-0.154
15,UniProt Q9DB05,0.113
16,UniProt Q9CZ44,0.128
17,UniProt Q9DAZ9,-0.071
18,UniProt Q9CZV8,-0.171

row,Target,log2 fold change of pooled soluble protein
1,UniProt Q9D9H8,-0.0188
2,UniProt Q9DBZ5,0.0417
3,UniProt Q9D1A2,-0.182
4,UniProt Q9DBM2,0.0192
5,UniProt Q9DBH0,-0.135
6,UniProt Q9D023,0.233
7,UniProt Q9DBD0,0.0652
8,UniProt Q9DC07,0.0952
9,UniProt Q9DBG3,0.121
10,UniProt Q9D855,0.0489
11,UniProt Q9CYZ2,0.0465
12,UniProt Q9D0L8,0.152
13,UniProt Q9D172,0.0677
14,UniProt Q9D8P4,0.184
15,UniProt Q9D0D5,0.464
16,UniProt Q9D772,0.44
17,UniProt Q9DBF1,-0.0294
18,UniProt Q9CXN7,0.0262

# Reformatted as tab-separated lines: part of the list above.
row	Target	log2 fold change of pooled soluble protein
3	UniProt Q9D8N0	-0.0927
4	UniProt Q9D7N9	-0.0455
5	UniProt Q9D009	-0.266
